Results reported in publication PMC3511402, “Structural and Biochemical Studies on ATP Binding and Hydrolysis by the Escherichia coli RNA Chaperone Hfq” (PLoS ONE, 2012).
Construct, isoform or probe ends are uncertain for at least one entry. At least one verdict was read from the data and is not stated in words by the source.

The chains behind the UniProt entries cited, without tags or fusion partners. Where a name states a change or a piece, a line headed by the entry shows the natural chain unless it says otherwise.
UniProt P0A6X3: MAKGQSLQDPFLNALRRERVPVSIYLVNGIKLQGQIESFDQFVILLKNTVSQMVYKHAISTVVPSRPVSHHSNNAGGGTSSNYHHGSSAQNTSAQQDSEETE

Target: Hfq (UniProt P0A6X3)
Assay: EMSA
Conditions: binary complex, ATP does not destabilize unless in vast excess; EMSA: 10 mM Tris pH 7.5, 60 mM NH4Cl, 5 mM beta-mercaptoethanol, 2 mM MgOAc, 100 ng yeast tRNA, 5 nM labelled RNA, room temperature; native 4% gel in TAE; recombinant protein; residues 1-102; label: 5'-32P

## AAAAAAAAAAAAAAAAAAAAAAAAAAA [poly(A)27]
  binding result: binds
